Results: the supplement of paper PMC10849652
The other results are listed elsewhere or left out. Residues, ends and D or L forms follow the SMILES beside them. *: point of attachment. Cbz = O=C(OCc1ccccc1)*

Amino acid sequences for entries named in this document (tags omitted). A change or cut given only in a name is not applied to a line headed by its entry.
UniProt P33176: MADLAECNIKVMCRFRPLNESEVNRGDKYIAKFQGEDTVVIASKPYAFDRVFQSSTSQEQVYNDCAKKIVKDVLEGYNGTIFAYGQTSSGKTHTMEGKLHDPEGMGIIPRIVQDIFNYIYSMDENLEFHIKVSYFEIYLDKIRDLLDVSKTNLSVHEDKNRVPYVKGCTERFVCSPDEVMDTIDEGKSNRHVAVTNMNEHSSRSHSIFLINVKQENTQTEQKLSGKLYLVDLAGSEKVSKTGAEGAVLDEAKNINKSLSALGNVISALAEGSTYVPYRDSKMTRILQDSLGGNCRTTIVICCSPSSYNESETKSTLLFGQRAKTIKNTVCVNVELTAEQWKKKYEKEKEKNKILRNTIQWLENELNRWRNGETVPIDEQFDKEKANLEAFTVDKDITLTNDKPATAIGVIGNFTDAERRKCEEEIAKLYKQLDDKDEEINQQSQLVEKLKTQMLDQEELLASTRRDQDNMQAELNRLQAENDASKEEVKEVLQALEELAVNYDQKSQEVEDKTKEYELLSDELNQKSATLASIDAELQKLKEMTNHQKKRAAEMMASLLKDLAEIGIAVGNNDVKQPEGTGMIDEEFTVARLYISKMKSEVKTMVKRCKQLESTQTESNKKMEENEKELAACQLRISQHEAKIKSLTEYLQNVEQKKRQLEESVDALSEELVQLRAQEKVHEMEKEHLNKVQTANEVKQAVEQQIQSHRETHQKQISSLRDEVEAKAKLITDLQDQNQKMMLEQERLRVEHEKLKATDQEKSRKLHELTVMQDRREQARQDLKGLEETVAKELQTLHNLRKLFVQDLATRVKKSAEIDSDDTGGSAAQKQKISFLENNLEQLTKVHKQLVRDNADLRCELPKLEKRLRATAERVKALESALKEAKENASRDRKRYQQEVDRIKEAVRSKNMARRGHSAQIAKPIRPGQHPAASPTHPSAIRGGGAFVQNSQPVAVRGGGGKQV
UniProt Q9Y448: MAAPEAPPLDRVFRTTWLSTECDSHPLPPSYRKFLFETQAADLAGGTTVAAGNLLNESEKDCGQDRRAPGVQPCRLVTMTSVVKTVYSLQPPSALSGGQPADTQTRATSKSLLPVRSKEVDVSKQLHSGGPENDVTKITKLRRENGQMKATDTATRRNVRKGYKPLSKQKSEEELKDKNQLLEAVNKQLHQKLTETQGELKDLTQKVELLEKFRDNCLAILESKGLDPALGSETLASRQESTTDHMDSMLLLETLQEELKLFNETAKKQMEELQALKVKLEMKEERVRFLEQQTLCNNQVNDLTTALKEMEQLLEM
UniProt P17275: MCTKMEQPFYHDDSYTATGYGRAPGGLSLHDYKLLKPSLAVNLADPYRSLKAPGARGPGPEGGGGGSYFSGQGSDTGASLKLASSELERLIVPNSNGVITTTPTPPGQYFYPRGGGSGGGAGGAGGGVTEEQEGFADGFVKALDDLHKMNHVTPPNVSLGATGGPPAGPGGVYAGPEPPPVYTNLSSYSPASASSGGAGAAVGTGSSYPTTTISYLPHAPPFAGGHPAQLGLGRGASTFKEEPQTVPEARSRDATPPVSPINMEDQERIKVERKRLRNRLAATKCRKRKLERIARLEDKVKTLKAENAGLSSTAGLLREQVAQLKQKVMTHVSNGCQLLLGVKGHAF
UniProt Q9NSK0: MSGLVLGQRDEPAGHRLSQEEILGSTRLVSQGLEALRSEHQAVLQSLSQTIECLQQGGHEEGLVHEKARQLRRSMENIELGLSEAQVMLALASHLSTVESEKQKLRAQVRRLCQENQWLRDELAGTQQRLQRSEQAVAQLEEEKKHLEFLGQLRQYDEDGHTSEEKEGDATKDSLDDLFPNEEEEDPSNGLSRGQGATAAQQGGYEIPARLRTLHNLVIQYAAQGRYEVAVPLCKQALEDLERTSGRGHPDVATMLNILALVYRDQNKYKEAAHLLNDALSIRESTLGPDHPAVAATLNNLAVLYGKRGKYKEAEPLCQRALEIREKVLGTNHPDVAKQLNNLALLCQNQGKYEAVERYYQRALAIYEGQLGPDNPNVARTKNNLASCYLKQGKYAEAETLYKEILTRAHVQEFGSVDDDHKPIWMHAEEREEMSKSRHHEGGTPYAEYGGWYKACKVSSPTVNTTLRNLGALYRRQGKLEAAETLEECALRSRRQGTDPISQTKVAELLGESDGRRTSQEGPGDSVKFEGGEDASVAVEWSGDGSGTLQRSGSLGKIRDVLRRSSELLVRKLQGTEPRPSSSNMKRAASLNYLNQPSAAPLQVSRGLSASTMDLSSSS
UniProt O00139: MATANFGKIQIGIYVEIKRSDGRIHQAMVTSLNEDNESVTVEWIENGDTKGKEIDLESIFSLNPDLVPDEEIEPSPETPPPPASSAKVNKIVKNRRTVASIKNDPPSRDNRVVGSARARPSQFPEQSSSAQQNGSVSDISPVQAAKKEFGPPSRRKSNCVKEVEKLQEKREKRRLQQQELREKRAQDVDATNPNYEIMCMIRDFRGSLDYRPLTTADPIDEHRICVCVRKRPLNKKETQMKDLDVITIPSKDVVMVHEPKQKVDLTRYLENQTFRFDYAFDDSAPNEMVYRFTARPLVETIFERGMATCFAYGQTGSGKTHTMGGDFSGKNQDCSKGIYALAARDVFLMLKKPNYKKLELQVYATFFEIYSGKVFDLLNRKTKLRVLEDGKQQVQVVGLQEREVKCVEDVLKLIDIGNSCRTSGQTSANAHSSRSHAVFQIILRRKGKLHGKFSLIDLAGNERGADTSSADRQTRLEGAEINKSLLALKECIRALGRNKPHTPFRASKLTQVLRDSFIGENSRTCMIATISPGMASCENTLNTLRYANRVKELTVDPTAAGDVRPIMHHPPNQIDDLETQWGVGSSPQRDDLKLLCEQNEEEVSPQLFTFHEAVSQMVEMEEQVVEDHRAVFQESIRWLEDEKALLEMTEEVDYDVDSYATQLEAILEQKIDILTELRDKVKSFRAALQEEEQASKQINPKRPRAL
UniProt P50053: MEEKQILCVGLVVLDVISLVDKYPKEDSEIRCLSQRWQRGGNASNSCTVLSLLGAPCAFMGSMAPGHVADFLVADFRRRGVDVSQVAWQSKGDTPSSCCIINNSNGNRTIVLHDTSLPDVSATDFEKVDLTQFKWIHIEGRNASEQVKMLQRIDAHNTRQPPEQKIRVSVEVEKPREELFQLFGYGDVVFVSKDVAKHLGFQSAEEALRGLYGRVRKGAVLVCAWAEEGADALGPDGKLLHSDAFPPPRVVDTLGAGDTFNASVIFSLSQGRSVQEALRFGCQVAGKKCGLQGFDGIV
UniProt Q8N5M9: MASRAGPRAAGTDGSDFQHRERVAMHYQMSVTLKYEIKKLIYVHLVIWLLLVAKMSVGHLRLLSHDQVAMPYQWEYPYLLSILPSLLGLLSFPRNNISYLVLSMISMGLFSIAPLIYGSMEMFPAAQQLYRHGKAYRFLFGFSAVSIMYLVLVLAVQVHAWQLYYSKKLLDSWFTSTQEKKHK
UniProt Q8N6L1: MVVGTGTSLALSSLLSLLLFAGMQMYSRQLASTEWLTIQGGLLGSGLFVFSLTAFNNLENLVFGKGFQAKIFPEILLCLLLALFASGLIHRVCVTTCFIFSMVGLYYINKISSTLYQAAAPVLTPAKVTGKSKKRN
UniProt Q92945: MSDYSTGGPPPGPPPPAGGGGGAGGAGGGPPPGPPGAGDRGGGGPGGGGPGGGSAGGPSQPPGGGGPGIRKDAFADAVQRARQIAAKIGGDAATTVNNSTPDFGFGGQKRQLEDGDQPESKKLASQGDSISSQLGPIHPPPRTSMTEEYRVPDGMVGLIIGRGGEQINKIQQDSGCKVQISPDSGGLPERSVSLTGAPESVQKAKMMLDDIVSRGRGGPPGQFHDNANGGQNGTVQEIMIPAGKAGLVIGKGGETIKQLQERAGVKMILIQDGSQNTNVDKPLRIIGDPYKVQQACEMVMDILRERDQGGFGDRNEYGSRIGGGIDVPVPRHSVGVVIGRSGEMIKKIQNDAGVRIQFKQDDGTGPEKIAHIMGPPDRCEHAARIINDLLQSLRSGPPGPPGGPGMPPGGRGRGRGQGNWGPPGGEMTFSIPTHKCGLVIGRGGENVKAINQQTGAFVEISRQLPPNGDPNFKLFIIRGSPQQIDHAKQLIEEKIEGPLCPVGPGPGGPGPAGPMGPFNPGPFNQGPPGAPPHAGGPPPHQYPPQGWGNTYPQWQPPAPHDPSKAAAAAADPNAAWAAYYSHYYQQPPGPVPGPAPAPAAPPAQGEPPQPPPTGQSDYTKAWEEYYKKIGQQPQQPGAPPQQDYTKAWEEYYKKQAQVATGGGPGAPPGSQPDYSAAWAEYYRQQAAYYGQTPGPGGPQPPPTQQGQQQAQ
UniProt Q9BVA0, whole entry, looked up: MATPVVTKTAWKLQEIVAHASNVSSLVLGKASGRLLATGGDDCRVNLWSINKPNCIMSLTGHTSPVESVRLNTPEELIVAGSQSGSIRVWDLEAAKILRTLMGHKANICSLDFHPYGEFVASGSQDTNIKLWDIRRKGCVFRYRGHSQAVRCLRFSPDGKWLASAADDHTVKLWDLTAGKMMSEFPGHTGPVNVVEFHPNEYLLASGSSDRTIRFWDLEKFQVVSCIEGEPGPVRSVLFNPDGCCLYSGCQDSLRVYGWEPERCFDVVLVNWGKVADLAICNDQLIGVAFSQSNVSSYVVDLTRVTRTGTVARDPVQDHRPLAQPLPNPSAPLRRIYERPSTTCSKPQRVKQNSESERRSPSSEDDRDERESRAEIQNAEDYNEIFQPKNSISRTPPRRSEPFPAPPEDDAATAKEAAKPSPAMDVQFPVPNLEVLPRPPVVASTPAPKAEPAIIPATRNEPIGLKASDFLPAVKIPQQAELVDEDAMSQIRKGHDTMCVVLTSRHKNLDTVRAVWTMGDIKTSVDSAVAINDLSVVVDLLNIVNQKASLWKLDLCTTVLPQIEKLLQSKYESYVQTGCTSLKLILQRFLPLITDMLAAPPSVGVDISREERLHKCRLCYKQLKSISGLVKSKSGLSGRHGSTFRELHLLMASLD
UniProt P17535: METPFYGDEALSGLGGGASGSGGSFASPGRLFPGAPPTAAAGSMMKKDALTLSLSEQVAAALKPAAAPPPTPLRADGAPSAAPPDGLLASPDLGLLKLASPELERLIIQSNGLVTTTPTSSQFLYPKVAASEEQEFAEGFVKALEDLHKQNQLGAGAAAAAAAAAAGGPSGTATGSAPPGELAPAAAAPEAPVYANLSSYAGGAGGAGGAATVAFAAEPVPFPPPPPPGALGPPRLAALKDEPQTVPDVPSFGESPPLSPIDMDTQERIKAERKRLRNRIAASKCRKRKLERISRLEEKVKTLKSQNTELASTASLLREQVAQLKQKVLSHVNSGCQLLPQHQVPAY
UniProt Q9Y664: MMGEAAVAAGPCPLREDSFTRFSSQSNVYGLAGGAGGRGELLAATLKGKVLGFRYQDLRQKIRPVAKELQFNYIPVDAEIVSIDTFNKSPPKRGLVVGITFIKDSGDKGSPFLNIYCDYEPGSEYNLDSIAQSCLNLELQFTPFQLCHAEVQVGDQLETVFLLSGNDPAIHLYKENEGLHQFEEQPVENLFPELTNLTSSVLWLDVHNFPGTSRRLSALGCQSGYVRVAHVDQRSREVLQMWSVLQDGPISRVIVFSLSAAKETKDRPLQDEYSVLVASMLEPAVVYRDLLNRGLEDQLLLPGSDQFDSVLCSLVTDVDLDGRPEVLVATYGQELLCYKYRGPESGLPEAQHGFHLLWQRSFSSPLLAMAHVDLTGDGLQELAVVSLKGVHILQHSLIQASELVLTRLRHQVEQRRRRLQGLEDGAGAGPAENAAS
UniProt Q9NVR0: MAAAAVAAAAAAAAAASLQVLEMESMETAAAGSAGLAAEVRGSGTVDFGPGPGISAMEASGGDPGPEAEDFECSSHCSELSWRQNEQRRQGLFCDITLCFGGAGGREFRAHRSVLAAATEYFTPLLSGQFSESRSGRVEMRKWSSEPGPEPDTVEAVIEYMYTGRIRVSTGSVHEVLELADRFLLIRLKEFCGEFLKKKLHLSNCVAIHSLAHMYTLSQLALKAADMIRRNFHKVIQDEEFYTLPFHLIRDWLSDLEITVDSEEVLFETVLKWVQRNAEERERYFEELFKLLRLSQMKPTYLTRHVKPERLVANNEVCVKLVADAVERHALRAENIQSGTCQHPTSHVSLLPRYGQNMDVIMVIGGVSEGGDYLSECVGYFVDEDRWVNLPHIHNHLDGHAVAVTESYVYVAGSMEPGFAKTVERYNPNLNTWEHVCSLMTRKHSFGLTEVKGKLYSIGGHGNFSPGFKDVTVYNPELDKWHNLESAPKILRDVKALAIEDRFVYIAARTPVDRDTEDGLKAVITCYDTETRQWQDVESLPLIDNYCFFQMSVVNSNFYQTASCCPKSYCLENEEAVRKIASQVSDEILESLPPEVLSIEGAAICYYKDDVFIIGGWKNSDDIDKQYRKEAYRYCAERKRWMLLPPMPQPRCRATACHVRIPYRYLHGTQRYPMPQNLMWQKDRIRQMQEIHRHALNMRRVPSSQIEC

Columns and labels:
Experiment in all cases: log2 fold change, soluble protein after heating vs DMSO (PISA); higher = thermal stabilisation; K562 cells, 10 uM, 30 min; active = over 0.2 and 3.5 SD of the protein, either way, in both replicates (recomputed)
erlotinib = compound: C#Cc1cccc(Nc2ncnc3cc(OCCOC)c(OCCOC)cc23)c1 [erlotinib]
Method in brief: (§1)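 Values are thermal stability changes relative to control samples and are taken from duplicates. They are stated as log2 fold changes. Before quantification by TMTpro 16plex LC-MS/MS with equalised channel sums, K562 cells at 2×10^6 cells/mL were treated with 10 μM compound for 30 min, heated in aliquots for 3 min across 48°C-58°C, pooled, extracted in PBS with 0.5% NP-40 at 4°C, and centrifuged at 21,000xg for 90 min to give the soluble supernatant.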

[1] = compound: C/C(=N\NC(=O)C1=CC(=CC=C1)S(=O)(=O)N2CCOCC2)/C3=C(C=CC(=C3)Cl)O
Method in brief: as §1

[2] = compound: C1=CC(=C(C=C1Cl)C2=NC3=NC=CN=C3C(=N2)NC4=CC=NC=C4)F
Method in brief: as §1

[3] = compound: C1=CC(=CC=C1C2=NC3=C(N2)C=C(C=C3)C(=O)N)OC4=CC=C(C=C4)Cl
Method in brief: as §1

[4] = compound: C1=CC2=C(C=CC(=C2)/C=C\3/C(=O)NC(=NCC4=CC=CS4)S3)N=C1
Method in brief: as §1

[5] = compound: C1=CC2=NC=CN=C2C=C1/C=C/3\C(=O)NC(=O)S3
Method in brief: as §1

[6] = compound: C1=CC=C(C=C1)C2=NC(=C(N2)C3=CC=NC=C3)C4=CC(=C(C=C4)Cl)O
Method in brief: as §1

[7] = compound: C1=CC=C2C(=C1)C3=NNC4=CC=CC(=C43)C2=O
Method in brief: as §1

[8] = compound: C1CCN(C1)C(=O)NC2=CC=CC(=C2)NC3=NC=C(C(=N3)NCCC4=CN=CN4)Br
Method in brief: as §1

[9] = compound: C1CN(CCC1(CC2=CC=C(C=C2)Cl)N)C3=NC=NC4=C3C=CN4
Method in brief: as §1

IRAK-1-4 Inhibitor I = compound: C1COCCN1CCN2C3=CC=CC=C3N=C2NC(=O)C4=CC(=CC=C4)[N+](=O)[O-] [IRAK-1-4 Inhibitor I]
Method in brief: as §1

ibrutinib = compound: C=CC(=O)N1CCC[C@@H](n2nc(-c3ccc(Oc4ccccc4)cc3)c3c(N)ncnc32)C1 [ibrutinib]
Method in brief: as §1

[10] = compound: CC(=O)c1cnc2ccc(-c3cc(Cl)c(O)c(Cl)c3)nc2c1N[C@H]1CC[C@H](CN(C)C)CC1
Method in brief: as §1

ralimetinib = compound: CC(C)(C)Cn1c(N)nc2ccc(-c3[nH]c(C(C)(C)C)nc3-c3ccc(F)cc3)nc21 [ralimetinib]
Method in brief: as §1

[11] = compound: CC(C)(O)CC(=O)NCCn1ccc2ncnc(Nc3ccc(Oc4cccc(C(F)(F)F)c4)c(Cl)c3)c21
Method in brief: as §1

[12] = compound: CC(C)C1=C2N=C(C=C(N2N=C1)NCC3=CC=CC=C3)NCCCCCCN
Method in brief: as §1

[13] = compound: CC(C)C[C@@H](C=O)NC(=O)[C@H](CC(C)C)NC(=O)[C@H](CC(C)C)NC(=O)OCc1ccccc1
Method in brief: as §1

pinometostat = compound: CC(C)N(C[C@H]1O[C@@H](n2cnc3c(N)ncnc32)[C@H](O)[C@@H]1O)[C@H]1C[C@@H](CCc2nc3cc(C(C)(C)C)ccc3[nH]2)C1 [pinometostat]
Method in brief: as §1

[14] = compound: CC1=C(C(CC(=O)N1)C2=CC=C(C=C2)C(F)(F)F)C(=O)NC3=C(C=C4C(=C3)C=NN4)F
Method in brief: as §1

[15] = compound: CC1=C(C2=C(C=C1)C(=O)C3=CC=CC=C3N2CCCN)C
Method in brief: as §1

Measured: log2 fold change

KIF5B (UniProt P33176)
inactive: erlotinib -0.022 | [1] 0.041 | [2] 0.08 | [3] -0.008 | [4] 0.01 | [5] 0.031 | [6] 0.066 | [7] 0.022 | [8] 0.004 | [9] -0.031 | IRAK-1-4 Inhibitor I 0.016 | ibrutinib -0.025 | [10] -0.033 | ralimetinib 0.064 | [11] -0.016 | [12] 0.013 | [13] -0.021 | pinometostat -0.022 | [14] 0 | [15] 0.071

KNSTRN (UniProt Q9Y448)
inactive: erlotinib 0.004 | [1] -0.017 | [2] -0.113 | [3] -0.005 | [4] 0.004 | [5] 0.032 | [6] -0.049 | [7] -0.08 | [8] 0.025 | [9] -0.108 | IRAK-1-4 Inhibitor I -0.078 | ibrutinib -0.048 | [10] -0.087 | ralimetinib 0.078 | [11] 0.027 | [12] 0.01 | [13] 0.072 | pinometostat 0.116 | [14] 0.044 | [15] 0.032

JUNB (UniProt P17275)
inactive: erlotinib 0.006 | [1] -0.209 | [2] -0.11 | [3] 0.078 | [4] 0.424 | [5] 0.013 | [6] -0.419 | [7] -0.161 | [8] -0.068 | [9] 0.081 | IRAK-1-4 Inhibitor I 0.159 | ibrutinib -0.102 | [10] -0.19 | ralimetinib -0.382 | [11] 0.116 | [12] 0.014 | [13] 0.161 | pinometostat 0 | [14] 0.199 | [15] -0.121

KLC4 isoform 3 (UniProt Q9NSK0)
inactive: erlotinib 0.086 | [1] 0.077 | [2] 0.102 | [3] 0.03 | [4] -0.029 | [5] 0.08 | [6] 0.061 | [7] 0.005 | [8] -0.005 | [9] -0.064 | IRAK-1-4 Inhibitor I 0.021 | ibrutinib -0.014 | [10] 0.027 | ralimetinib 0.033 | [11] -0.101 | [12] -0.175 | [13] -0.065 | pinometostat -0.011 | [14] 0.132 | [15] 0.029

KIF2A isoform 4 (UniProt O00139)
inactive: erlotinib -0.003 | [1] 0.007 | [2] -0.201 | [3] -0.006 | [4] -0.013 | [5] 0.014 | [6] -0.021 | [7] -0.002 | [8] -0.06 | [9] -0.153 | IRAK-1-4 Inhibitor I -0.026 | ibrutinib 0.012 | [10] -0.022 | ralimetinib 0.121 | [11] 0 | [12] -0.025 | [13] 0.057 | pinometostat 0.221 | [14] 0.004 | [15] 0.218

KHK isoform 2 (UniProt P50053)
inactive: erlotinib 0.056 | [1] -0.031 | [2] 0.015 | [3] -0.021 | [4] 0.022 | [5] 0.019 | [6] 0.013 | [7] -0.045 | [8] -0.024 | [9] 0.071 | IRAK-1-4 Inhibitor I -0.003 | ibrutinib 0 | [10] 0.029 | ralimetinib 0.023 | [11] 0.016 | [12] 0.07 | [13] -0.113 | pinometostat 0.025 | [14] -0.014 | [15] -0.006

JAGN1 (UniProt Q8N5M9)
inactive: erlotinib -0.003 | [1] -0.023 | [2] 0.039 | [3] 0.05 | [4] 0.133 | [5] 0.022 | [6] 0.041 | [7] 0.028 | [8] 0.003 | [9] -0.021 | IRAK-1-4 Inhibitor I -0.155 | ibrutinib 0.03 | [10] -0.002 | ralimetinib -0.092 | [11] -0.096 | [12] -0.069 | [13] -0.111 | pinometostat -0.052 | [14] -0.004 | [15] 0.201

4 consecutive records already listed:
KLC4 isoform 3 (UniProt Q9NSK0)
inactive: erlotinib 0.086 | [1] 0.077 | [2] 0.102 | [3] 0.03 | [4] -0.029 | [5] 0.08 | [6] 0.061 | [7] 0.005 | [8] -0.005 | [9] -0.064 | IRAK-1-4 Inhibitor I 0.021 | ibrutinib -0.014 | [10] 0.027 | ralimetinib 0.033 | [11] -0.101 | [12] -0.175 | [13] -0.065 | pinometostat -0.011 | [14] 0.132 | [15] 0.029

KIF2A isoform 4 (UniProt O00139)
inactive: erlotinib -0.003 | [1] 0.007 | [2] -0.201 | [3] -0.006 | [4] -0.013 | [5] 0.014 | [6] -0.021 | [7] -0.002 | [8] -0.06 | [9] -0.153 | IRAK-1-4 Inhibitor I -0.026 | ibrutinib 0.012 | [10] -0.022 | ralimetinib 0.121 | [11] 0 | [12] -0.025 | [13] 0.057 | pinometostat 0.221 | [14] 0.004 | [15] 0.218

KHK isoform 2 (UniProt P50053)
inactive: erlotinib 0.056 | [1] -0.031 | [2] 0.015 | [3] -0.021 | [4] 0.022 | [5] 0.019 | [6] 0.013 | [7] -0.045 | [8] -0.024 | [9] 0.071 | IRAK-1-4 Inhibitor I -0.003 | ibrutinib 0 | [10] 0.029 | ralimetinib 0.023 | [11] 0.016 | [12] 0.07 | [13] -0.113 | pinometostat 0.025 | [14] -0.014 | [15] -0.006

JAGN1 (UniProt Q8N5M9)
inactive: erlotinib -0.003 | [1] -0.023 | [2] 0.039 | [3] 0.05 | [4] 0.133 | [5] 0.022 | [6] 0.041 | [7] 0.028 | [8] 0.003 | [9] -0.021 | IRAK-1-4 Inhibitor I -0.155 | ibrutinib 0.03 | [10] -0.002 | ralimetinib -0.092 | [11] -0.096 | [12] -0.069 | [13] -0.111 | pinometostat -0.052 | [14] -0.004 | [15] 0.201

Continuation.

KDM5C (UniProt P41229)
inactive: erlotinib 0.003 | [1] -0.218 | [2] -0.045 | [3] -0.091 | [4] 0.092 | [5] 0.012 | [6] -0.087 | [7] 0.13 | [8] -0.001 | [9] 0.055 | IRAK-1-4 Inhibitor I 0.141 | ibrutinib -0.194 | [10] -0.014 | ralimetinib -0.028 | [11] -0.04 | [12] -0.15 | [13] 0.065 | pinometostat -0.051 | [14] -0.054 | [15] -0.097

KRTCAP2 isoform 2 (UniProt Q8N6L1)
inactive: erlotinib 0.02 | [1] 0.1 | [2] 0.069 | [3] 0.012 | [4] -0.073 | [5] 0.057 | [6] 0.159 | [7] 0.048 | [8] 0.007 | [9] 0.16 | IRAK-1-4 Inhibitor I 0.045 | ibrutinib 0.001 | [10] -0.01 | ralimetinib 0.064 | [11] -0.139 | [12] -0.156 | [13] -0.141 | pinometostat -0.035 | [14] -0.043 | [15] 0.121

KIAA1522 isoform 2 (UniProt Q9P206)
inactive: erlotinib 0.065 | [1] 0.105 | [2] -0.251 | [3] -0.009 | [4] -0.038 | [5] -0.031 | [6] 0.008 | [7] -0.105 | [8] -0.026 | [9] -0.173 | IRAK-1-4 Inhibitor I -0.093 | ibrutinib -0.036 | [10] -0.034 | ralimetinib 0.013 | [11] 0.041 | [12] -0.053 | [13] 0.081 | pinometostat 0.086 | [14] 0.074 | [15] -0.084

KIAA0100 (UniProt Q14667)
inactive: erlotinib 0.231 | [1] -0.095 | [2] 0.009 | [3] -0.107 | [4] 0.148 | [5] 0.029 | [6] 0.044 | [7] 0.013 | [8] -0.013 | [9] 0.111 | IRAK-1-4 Inhibitor I -0.043 | ibrutinib -0.019 | [10] -0.007 | ralimetinib -0.095 | [11] -0.164 | [12] 0.105 | [13] 0.038 | pinometostat 0.023 | [14] -0.044 | [15] 0.08

KHSRP (UniProt Q92945)
inactive: erlotinib 0.034 | [1] -0.004 | [2] -0.012 | [3] 0.008 | [4] 0.011 | [5] 0.027 | [6] -0.068 | [7] 0.005 | [8] 0.006 | [9] 0.023 | IRAK-1-4 Inhibitor I 0.058 | ibrutinib -0.003 | [10] -0.005 | ralimetinib -0.053 | [11] 0.052 | [12] 0.077 | [13] 0.007 | pinometostat -0.043 | [14] 0.04 | [15] 0.027

KATNB1 (UniProt Q9BVA0)
inactive: erlotinib -0.01 | [1] 0.074 | [2] -0.012 | [3] -0.028 | [4] 0.002 | [5] 0.012 | [6] -0.059 | [7] 0.032 | [8] 0.007 | [9] -0.08 | IRAK-1-4 Inhibitor I -0.045 | ibrutinib -0.041 | [10] -0.031 | ralimetinib 0.042 | [11] -0.094 | [12] -0.06 | [13] 0.065 | pinometostat 0.135 | [14] -0.038 | [15] 0.002

JUND (UniProt P17535)
inactive: erlotinib -0.021 | [1] 0.02 | [2] -0.036 | [3] 0.02 | [4] 0.018 | [5] 0.061 | [6] -0.098 | [7] 0.001 | [8] -0.026 | [9] -0.053 | IRAK-1-4 Inhibitor I -0.047 | ibrutinib 0.011 | [10] -0.013 | ralimetinib -0.018 | [11] 0.042 | [12] 0.075 | [13] 0 | pinometostat -0.016 | [14] 0.039 | [15] -0.008

KPTN (UniProt Q9Y664)
inactive: erlotinib 0.001 | [1] 0.034 | [2] 0.01 | [3] 0.038 | [4] 0.044 | [5] -0.035 | [6] 0.114 | [7] -0.021 | [8] 0.004 | [9] -0.06 | IRAK-1-4 Inhibitor I 0.053 | ibrutinib -0.009 | [10] 0.013 | ralimetinib -0.027 | [11] -0.154 | [12] -0.083 | [13] 0.025 | pinometostat -0.025 | [14] -0.053 | [15] 0.036

KLHL11 (UniProt Q9NVR0)
inactive: erlotinib -0.009 | [1] 0.04 | [2] 0.028 | [3] 0.042 | [4] 0 | [5] -0.001 | [6] 0.05 | [7] -0.187 | [8] 0.003 | [9] 0.02 | IRAK-1-4 Inhibitor I 0.031 | ibrutinib -0.081 | [10] 0.044 | ralimetinib 0.137 | [11] -0.022 | [12] 0.173 | [13] -0.018 | pinometostat 0.078 | [14] 0.099 | [15] -0.024
